Reference: paper PMC12667488
No constants are given. Whether binding was seen depends on the method and setting. Binding seen in cells or lysates may run through a third protein. Some results given as binding are weak or reduced against the parent protein; the word gives no strength.

Sequences of proteins named here, by UniProt entry; tags and fusion partners are left off.
UniProt O14503: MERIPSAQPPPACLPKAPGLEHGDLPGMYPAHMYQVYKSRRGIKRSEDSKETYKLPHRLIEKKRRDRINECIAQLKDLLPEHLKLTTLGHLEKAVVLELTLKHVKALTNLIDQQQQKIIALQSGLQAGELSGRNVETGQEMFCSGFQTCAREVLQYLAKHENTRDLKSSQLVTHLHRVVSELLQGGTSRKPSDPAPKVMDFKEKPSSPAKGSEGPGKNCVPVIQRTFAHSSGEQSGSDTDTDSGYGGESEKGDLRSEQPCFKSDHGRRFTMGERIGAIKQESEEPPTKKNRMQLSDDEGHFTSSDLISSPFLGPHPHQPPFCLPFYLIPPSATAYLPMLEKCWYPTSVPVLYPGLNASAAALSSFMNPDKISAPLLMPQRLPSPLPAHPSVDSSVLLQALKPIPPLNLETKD
UniProt P23769: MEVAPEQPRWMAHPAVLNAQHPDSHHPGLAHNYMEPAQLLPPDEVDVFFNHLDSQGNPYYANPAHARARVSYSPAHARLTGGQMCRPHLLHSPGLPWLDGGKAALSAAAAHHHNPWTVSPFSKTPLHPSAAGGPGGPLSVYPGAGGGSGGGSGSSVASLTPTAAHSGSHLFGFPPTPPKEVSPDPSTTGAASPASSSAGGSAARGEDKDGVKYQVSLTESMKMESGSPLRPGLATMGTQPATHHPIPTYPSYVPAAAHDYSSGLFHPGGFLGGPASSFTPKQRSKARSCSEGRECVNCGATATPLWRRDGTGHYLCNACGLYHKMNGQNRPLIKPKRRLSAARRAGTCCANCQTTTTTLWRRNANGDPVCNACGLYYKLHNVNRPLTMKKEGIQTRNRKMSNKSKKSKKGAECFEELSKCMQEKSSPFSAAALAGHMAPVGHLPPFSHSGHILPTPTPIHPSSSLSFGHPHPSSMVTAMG
UniProt P23771: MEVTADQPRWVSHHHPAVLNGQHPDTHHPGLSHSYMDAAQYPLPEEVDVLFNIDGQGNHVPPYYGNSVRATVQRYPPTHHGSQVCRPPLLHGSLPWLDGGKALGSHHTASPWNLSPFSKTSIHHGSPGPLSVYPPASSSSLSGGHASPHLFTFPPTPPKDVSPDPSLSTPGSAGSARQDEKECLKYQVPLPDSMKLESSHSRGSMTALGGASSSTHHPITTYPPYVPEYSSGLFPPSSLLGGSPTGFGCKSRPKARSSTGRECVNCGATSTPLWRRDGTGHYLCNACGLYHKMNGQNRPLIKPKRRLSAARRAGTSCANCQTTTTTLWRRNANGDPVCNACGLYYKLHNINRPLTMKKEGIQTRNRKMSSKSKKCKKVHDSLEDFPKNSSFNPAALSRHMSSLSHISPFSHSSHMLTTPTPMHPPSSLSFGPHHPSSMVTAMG
UniProt Q92754: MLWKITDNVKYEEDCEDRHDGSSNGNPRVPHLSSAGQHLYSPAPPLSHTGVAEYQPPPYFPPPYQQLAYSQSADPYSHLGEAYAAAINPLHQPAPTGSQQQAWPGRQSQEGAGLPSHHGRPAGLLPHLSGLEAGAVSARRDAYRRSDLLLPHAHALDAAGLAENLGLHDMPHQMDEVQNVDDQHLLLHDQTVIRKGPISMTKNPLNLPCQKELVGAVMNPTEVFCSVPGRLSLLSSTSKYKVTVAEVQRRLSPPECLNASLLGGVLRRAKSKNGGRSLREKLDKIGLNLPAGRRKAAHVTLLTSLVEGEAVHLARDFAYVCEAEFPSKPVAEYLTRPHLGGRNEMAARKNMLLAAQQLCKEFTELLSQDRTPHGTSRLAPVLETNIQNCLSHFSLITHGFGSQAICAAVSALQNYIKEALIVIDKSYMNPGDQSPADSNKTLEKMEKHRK

Tests used:
HA‐tagged BHLHE40 = HA‐tagged BHLHE40 (UniProt O14503); experiment: co-IP; transfected HEK293T cells expressing HA-tagged BHLHE40 and FLAG-tagged GATA2 or GATA3; anti-HA or anti-DDDDK antibody on protein A/G magnetic beads; lysis in 20 mM Tris-HCl pH 7.5, 300 mM NaCl, 0.1% Triton X-100 with Benzonase; overnight at 4 °C; western blotting
[1] = biological target: basic helix‐loop‐helix family member 40 (BHLHE40) (human (endogenous in STBs from human TSCs)) (UniProt O14503); experiment: co-IP; endogenous proteins in STB lysate; anti-BHLHE40 antibody (Santa Cruz sc-101023) on protein A/G magnetic beads, IgG control; lysis in 20 mM Tris-HCl pH 7.5, 300 mM NaCl, 0.1% Triton X-100 with Benzonase; overnight at 4 °C; five washes with TBST; western blotting
FLAG‐tagged GATA2 = FLAG‐tagged GATA2 (UniProt P23769); experiment: co-IP; transfected HEK293T cells expressing HA-tagged BHLHE40 and FLAG-tagged GATA2 or GATA3; anti-HA or anti-DDDDK antibody on protein A/G magnetic beads; lysis in 20 mM Tris-HCl pH 7.5, 300 mM NaCl, 0.1% Triton X-100 with Benzonase; overnight at 4 °C; western blotting
FLAG‐tagged GATA3 = FLAG‐tagged GATA3 (UniProt P23771); experiment: as above

Substance	binding (HA‐tagged BHLHE40)	binding [1]	further results
FLAG‐tagged GATA2 (from UniProt P23769 1-480)	binds	–	–
GATA3 (from UniProt P23771 1-443)	–	binds	–
HA‐tagged BHLHE40 (from UniProt O14503 1-412)	–	–	binding (FLAG‐tagged GATA2): binds; binding (FLAG‐tagged GATA3): binds

Second part, led by results:

binding (HA‐tagged BHLHE40)	binding [1]	Substance	further results
binds	–	FLAG‐tagged GATA3 (from UniProt P23771 1-443)	–
–	binds	GATA2 (from UniProt P23769 1-480)	–
–	binds weakly	TFAP2C (from UniProt Q92754 1-450)	–
